From the supplement of paper PMC7666118
The list shows a part of the results.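 How the source made its calls: active = dose-dependent thermal stabilisation significant by F-test of dose-response against flat model at 10% FDR; inactive = not significant.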

Amino acid sequences for entries named in this document (tags omitted). A change or cut given only in a name is not applied to a line headed by its entry.
UniProt Q9H993: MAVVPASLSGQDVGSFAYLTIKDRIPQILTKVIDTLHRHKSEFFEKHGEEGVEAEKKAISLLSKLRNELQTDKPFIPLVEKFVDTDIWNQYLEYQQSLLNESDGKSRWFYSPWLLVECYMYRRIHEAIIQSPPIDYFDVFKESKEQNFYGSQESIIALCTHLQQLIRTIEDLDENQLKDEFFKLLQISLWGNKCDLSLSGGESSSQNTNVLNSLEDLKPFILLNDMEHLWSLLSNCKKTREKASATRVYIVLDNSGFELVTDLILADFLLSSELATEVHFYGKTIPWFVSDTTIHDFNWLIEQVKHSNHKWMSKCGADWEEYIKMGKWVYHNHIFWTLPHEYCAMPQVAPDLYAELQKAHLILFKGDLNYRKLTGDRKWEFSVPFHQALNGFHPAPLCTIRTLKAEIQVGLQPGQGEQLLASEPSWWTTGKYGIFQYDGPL
UniProt Q13555: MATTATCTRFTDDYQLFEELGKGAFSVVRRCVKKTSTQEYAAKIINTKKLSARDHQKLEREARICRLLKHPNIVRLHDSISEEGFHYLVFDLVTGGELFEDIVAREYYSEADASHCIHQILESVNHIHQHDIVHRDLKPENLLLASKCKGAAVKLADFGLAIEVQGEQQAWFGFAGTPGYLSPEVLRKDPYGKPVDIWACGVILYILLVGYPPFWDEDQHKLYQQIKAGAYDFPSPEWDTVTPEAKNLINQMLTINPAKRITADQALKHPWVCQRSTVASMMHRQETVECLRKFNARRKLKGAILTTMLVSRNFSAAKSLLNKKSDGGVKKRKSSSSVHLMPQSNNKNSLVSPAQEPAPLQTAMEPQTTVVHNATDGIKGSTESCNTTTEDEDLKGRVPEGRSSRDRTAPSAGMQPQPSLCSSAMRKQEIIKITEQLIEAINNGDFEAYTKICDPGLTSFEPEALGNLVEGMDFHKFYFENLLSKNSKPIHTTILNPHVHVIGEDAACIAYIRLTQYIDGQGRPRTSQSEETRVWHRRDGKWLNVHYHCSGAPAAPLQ
UniProt Q9H7E9: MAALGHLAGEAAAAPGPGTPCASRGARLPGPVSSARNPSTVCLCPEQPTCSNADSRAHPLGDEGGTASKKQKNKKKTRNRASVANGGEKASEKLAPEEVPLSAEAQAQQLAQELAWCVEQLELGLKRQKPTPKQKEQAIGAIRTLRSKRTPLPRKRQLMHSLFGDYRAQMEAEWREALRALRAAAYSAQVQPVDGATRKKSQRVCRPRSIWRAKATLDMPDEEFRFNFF
UniProt P11274: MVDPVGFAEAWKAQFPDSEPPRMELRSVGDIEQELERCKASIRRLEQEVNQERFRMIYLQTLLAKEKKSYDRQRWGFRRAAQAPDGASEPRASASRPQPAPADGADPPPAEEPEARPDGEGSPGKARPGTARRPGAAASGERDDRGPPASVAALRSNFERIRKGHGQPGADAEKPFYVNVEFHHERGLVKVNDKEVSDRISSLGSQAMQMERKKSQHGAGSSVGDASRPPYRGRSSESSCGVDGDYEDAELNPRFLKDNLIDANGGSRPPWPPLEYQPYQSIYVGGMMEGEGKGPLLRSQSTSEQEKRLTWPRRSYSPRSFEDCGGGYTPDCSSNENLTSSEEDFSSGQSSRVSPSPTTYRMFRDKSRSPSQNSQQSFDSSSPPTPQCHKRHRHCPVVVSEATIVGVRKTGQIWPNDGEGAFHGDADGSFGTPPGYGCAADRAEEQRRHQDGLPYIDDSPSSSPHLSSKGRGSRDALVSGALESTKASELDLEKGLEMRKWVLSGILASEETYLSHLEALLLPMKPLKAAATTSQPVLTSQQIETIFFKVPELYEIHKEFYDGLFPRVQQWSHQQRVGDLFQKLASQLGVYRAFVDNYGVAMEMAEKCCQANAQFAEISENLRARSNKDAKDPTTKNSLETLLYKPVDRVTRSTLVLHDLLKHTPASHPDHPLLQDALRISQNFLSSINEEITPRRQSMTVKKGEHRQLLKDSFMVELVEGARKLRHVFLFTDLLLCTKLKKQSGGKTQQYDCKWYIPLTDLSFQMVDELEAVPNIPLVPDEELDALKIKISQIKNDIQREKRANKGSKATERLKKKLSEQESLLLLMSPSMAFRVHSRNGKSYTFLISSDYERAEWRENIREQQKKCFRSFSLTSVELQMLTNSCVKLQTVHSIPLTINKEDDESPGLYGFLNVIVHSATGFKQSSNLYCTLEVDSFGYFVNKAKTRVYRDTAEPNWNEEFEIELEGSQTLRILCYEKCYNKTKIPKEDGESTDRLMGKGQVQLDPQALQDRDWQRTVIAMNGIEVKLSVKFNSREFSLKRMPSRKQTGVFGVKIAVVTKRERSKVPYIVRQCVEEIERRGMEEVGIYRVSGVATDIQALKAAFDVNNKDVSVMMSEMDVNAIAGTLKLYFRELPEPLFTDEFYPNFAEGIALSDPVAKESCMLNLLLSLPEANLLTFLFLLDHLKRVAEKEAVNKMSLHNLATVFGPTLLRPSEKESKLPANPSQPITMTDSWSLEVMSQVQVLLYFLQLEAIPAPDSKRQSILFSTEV
UniProt O43852: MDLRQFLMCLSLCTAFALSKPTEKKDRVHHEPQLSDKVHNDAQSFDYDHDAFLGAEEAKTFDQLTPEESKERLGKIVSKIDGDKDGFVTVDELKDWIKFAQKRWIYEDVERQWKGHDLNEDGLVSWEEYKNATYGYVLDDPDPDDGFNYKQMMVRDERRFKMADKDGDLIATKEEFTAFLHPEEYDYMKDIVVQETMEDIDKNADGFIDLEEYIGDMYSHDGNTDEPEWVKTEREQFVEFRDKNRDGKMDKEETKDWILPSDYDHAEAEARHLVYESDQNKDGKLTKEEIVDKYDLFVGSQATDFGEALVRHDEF
UniProt P27824: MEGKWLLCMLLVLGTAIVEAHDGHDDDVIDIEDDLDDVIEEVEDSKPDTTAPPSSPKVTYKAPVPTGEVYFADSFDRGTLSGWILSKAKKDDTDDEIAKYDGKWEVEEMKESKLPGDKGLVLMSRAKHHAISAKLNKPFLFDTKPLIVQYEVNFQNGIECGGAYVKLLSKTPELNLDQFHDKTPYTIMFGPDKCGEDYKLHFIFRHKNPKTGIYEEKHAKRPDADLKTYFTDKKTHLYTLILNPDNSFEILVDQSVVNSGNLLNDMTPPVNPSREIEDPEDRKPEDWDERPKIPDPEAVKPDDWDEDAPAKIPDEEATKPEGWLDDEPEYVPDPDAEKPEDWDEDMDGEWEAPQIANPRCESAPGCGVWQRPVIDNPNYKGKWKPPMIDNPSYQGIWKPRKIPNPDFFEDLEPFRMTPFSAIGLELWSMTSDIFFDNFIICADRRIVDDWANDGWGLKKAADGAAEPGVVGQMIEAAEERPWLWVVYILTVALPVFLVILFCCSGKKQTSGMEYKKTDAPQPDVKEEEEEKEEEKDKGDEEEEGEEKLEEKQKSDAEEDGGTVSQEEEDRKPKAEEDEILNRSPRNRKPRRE
UniProt Q9Y6W3: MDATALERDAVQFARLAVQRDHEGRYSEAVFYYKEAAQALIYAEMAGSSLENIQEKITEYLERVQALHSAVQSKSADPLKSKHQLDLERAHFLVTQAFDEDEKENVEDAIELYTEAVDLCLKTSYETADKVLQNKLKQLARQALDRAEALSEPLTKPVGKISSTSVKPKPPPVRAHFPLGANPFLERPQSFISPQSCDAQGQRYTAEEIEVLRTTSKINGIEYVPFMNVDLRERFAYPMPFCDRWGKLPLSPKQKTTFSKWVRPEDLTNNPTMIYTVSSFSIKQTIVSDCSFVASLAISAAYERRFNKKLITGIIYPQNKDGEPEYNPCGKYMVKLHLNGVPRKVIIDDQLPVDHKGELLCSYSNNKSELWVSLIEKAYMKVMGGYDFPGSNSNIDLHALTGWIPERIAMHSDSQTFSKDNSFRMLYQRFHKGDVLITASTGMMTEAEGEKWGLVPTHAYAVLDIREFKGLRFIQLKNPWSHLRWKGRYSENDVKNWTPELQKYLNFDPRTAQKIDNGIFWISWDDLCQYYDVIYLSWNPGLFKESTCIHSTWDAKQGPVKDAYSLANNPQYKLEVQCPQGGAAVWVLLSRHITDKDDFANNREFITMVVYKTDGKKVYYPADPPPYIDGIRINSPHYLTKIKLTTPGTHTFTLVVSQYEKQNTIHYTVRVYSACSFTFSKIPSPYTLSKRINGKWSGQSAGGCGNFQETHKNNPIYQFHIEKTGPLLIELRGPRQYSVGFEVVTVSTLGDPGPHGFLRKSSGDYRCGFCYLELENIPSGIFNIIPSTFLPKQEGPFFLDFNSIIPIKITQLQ
UniProt P38606, whole entry: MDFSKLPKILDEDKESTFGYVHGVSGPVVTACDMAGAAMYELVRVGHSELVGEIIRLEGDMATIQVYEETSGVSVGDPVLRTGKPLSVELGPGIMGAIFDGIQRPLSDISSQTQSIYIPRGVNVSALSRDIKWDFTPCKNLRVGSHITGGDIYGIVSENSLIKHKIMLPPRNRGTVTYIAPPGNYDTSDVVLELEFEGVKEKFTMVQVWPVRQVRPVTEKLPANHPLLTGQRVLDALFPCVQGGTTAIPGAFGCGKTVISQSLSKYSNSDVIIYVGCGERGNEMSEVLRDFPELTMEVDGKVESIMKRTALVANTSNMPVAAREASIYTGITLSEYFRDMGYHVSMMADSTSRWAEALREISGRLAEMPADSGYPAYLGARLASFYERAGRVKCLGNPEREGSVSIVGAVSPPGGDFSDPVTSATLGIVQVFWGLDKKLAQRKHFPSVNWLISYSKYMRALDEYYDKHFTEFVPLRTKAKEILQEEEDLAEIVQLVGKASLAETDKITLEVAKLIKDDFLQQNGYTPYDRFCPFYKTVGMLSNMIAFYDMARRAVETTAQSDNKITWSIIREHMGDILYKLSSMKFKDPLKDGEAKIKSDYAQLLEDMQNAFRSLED
UniProt Q8IYL3: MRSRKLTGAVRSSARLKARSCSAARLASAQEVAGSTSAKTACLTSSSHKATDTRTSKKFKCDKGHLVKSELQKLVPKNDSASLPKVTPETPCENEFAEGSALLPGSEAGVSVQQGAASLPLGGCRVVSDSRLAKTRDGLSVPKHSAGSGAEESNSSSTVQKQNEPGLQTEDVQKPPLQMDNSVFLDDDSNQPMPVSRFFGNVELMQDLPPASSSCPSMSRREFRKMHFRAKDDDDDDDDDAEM
UniProt Q9ULH1: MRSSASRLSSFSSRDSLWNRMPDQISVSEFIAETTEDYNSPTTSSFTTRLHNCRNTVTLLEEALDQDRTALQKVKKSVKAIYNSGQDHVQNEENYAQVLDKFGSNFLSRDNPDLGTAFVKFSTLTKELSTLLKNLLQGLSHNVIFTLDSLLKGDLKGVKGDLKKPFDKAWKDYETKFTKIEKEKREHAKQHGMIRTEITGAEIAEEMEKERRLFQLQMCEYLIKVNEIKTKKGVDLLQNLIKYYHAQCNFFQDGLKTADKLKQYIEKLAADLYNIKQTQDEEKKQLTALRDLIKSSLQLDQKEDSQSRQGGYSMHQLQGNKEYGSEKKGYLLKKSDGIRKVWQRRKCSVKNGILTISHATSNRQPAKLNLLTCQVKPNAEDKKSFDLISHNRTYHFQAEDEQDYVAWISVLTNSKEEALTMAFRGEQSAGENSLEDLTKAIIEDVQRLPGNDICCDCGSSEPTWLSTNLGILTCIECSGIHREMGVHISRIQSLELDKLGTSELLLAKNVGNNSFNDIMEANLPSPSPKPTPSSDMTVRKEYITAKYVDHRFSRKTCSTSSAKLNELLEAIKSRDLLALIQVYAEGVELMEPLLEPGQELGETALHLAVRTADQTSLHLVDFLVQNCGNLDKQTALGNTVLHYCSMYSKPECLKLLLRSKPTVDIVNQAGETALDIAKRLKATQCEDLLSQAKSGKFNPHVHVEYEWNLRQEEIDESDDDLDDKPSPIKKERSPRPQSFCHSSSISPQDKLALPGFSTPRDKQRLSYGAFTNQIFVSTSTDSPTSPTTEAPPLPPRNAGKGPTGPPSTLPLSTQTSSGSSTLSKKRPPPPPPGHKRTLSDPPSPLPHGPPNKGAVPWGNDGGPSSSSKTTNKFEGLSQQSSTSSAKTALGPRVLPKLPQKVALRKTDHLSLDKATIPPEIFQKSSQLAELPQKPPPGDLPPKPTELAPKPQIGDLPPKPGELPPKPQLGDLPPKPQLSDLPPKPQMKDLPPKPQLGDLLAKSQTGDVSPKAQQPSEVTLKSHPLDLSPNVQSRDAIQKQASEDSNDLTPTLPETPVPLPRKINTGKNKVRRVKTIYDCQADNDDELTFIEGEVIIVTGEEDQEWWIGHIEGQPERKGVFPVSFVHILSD
UniProt Q86Y37: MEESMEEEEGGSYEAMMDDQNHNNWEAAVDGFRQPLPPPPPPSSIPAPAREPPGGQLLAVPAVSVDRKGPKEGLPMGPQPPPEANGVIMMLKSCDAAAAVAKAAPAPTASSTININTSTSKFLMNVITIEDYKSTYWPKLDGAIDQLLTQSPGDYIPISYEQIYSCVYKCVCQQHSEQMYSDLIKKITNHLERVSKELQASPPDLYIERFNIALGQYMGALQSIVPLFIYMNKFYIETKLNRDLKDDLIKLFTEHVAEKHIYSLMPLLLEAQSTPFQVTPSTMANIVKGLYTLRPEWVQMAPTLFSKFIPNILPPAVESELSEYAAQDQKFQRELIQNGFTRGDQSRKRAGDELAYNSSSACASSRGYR

These targets were tested with Nc1nc2c(ncn2[C@@H]2O[C@H](COP(=O)(O)OP(=O)(O)OP(=O)(O)O)[C@@H](O)[C@H]2O)c(=O)[nH]1 (assay: dose-dependent thermal stabilisation call (2D-TPP, DLPTP, 10% FDR) (binary (1 = stabilised)); higher = stabilised by the compound). Conditions: system: Jurkat gel-filtered lysate; concentration range 1-500 µM.
Procedure: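 2D thermal proteome profiling in gel-filtered Jurkat E6.1 lysate (2 mg/ml) treated with NaGTP (0, 1, 10, 100, 500 uM) for 10 min at room temperature, then heated 3 min at one of 12 temperatures (42-63.9 C). Soluble protein was quantified by TMT10 MS. The value is the DLPTP call of the paper: dose-dependent thermal stabilisation over all temperatures at 10% FDR (F-test of a dose-response against a flat model); one experiment, one call per tested protein.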

Target	dose-dependent thermal stabilisation call
BCL9L (UniProt Q86UU0)	inactive: 0
C1orf131 (UniProt Q8NDD1)	inactive: 0
ARIH2 (UniProt O95376)	inactive: 0
ARPC2 (UniProt O15144)	active: 1
CARD11 (UniProt Q9BXL7)	inactive: 0
ARID1A (UniProt O14497)	inactive: 0
C14orf166 (UniProt Q9Y224)	inactive: 0
ASPSCR1 (UniProt Q9BZE9)	inactive: 0
BRD4 (UniProt O60885)	inactive: 0
AZI2 (UniProt Q9H6S1)	inactive: 0
C9orf78 (UniProt Q9NZ63)	inactive: 0
BLOC1S2 (UniProt Q6QNY1)	inactive: 0
BCLAF1 (UniProt Q9NYF8)	active: 1
ARMT1 (UniProt Q9H993)	active: 1
CAMK2G (UniProt Q13555)	inactive: 0
C16orf70 (UniProt Q9BSU1)	inactive: 0
ARHGAP5 (UniProt Q13017)	inactive: 0
BMS1 (UniProt Q14692)	inactive: 0
C2orf76 (UniProt Q3KRA6)	inactive: 0
ATL3 (UniProt Q6DD88)	active: 1

Target	dose-dependent thermal stabilisation call
BABAM1 (UniProt Q9NWV8)	inactive: 0
C8orf33 (UniProt Q9H7E9)	inactive: 0
BCR (UniProt P11274)	inactive: 0
CALU (UniProt O43852)	inactive: 0
CANX (UniProt P27824)	inactive: 0
ARHGEF7 (UniProt Q14155)	inactive: 0
C2orf69 (UniProt Q8N8R5)	inactive: 0
CAPN7 (UniProt Q9Y6W3)	active: 1
ATP6V1A (UniProt P38606)	inactive: 0
BAG3 (UniProt O95817)	inactive: 0
ATG3 (UniProt Q9NT62)	active: 1
C9orf64 (UniProt Q5T6V5)	inactive: 0
C1orf174 (UniProt Q8IYL3)	inactive: 0
BABAM2 (UniProt Q9NXR7)	inactive: 0
ASAP1 (UniProt Q9ULH1)	inactive: 0
CAP1 (UniProt Q01518)	inactive: 0
CARNMT1 (UniProt Q8N4J0)	inactive: 0
ARMC1 (UniProt Q9NVT9)	inactive: 0
CACUL1 (UniProt Q86Y37)	inactive: 0
ARL2 (UniProt P36404)	active: 1
